± gives the standard deviation of the averaged measurements. Most entries show no effect beyond the scatter of the controls.
How the values were obtained:
Assay in all cases: level (log10 ratio to DMSO vehicle control); higher = higher biomarker level / cell amount than vehicle control
[1] = compound: CCCCCCCCC(F)(F)C(F)(F)C(F)(F)C(F)(F)C(F)(F)C(F)(F)F [1-(Perfluorohexyl)octane]; conditions: in DMSO
Experimental: (§1)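 BioMAP Diversity Plus panel of 12 human primary cell co-culture systems (3C, 4H, LPS, SAg, BT, BF4T, BE3C, CASM3C, HDF3CGF, KF3CT, MyoF, Mphg). Compounds were added 1 h before stimulation and left for 24 h (MyoF 48 h; BT 72 h for soluble read-outs or 6 d for IgG). Biomarkers were read by ELISA, cytotoxicity by SRB, PBMC viability and proliferation by Alamar Blue. Each well value was divided by the mean of 8 DMSO control wells on the same plate and log10 transformed; duplicate blinded samples were tested at 4 concentrations.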

[2] = compound: OCCC(F)(F)C(F)(F)C(F)(F)C(F)(F)C(F)(F)C(F)(F)F [6:2 Fluorotelomer alcohol]; conditions: 2200 nM; in DMSO
Experimental: as §1

[3] = compound: Cc1ccc(S(=O)(=O)OCC(F)(F)C(F)(F)C(F)(F)C(F)(F)C(F)(F)C(F)F)cc1 [1H,1H,7H-Perfluoroheptyl 4-methylbenzenesulfonate]; conditions: 2200 nM; in DMSO
Experimental: as §1

[4] = compound: O=C(O)C(F)(F)C(F)(F)C(F)(F)C(F)(F)C(F)(F)C(F)(F)C(F)(F)C(F)(F)C(F)(F)C(F)F [11-H-Perfluoroundecanoic acid]; conditions: 2200 nM; in DMSO
Experimental: as §1

[5] = compound: O=C(O)C(F)(F)C(F)(F)C(F)(F)OC(F)(F)F [Perfluoro(4-methoxybutanoic) acid]; conditions: 2200 nM; in DMSO
Experimental: as §1

[6] = compound: O=C(O)C(F)(F)C(F)(F)C(F)(F)C(F)(F)F [Perfluoropentanoic acid]; conditions: in DMSO
Experimental: as §1

[7] = compound: FC(F)(F)C(F)(F)C(F)(F)C(F)(F)C(F)(F)C(F)(F)CC1CO1 [3-(Perfluorohexyl)-1,2-epoxypropane]; conditions: 2200 nM; in DMSO
Experimental: as §1

[8] = compound: NCC(F)(F)C(F)(F)C(F)(F)C(F)(F)C(F)(F)C(F)(F)C(F)(F)F [1H,1H-Perfluorooctylamine]; conditions: 2200 nM; in DMSO
Experimental: as §1

[9] = compound: OCC(F)(F)C(F)(F)C(F)(F)F [1H,1H-Heptafluorobutanol]; conditions: 2200 nM; in DMSO
Experimental: as §1

[10] = compound: CCN(CCO)S(=O)(=O)C(F)(F)C(F)(F)C(F)(F)C(F)(F)C(F)(F)C(F)(F)C(F)(F)C(F)(F)F [N-Ethyl-N-(2-hydroxyethyl)perfluorooctanesulfonamide]; conditions: in DMSO
Experimental: as §1

[11] = compound: CC(C)(C)C(=O)CC(=O)C(F)(F)C(F)(F)C(F)(F)F [(Heptafluorobutanoyl)pivaloylmethane]; conditions: 2200 nM; in DMSO
Experimental: as §1

[12] = compound: CN(C(=O)C(F)(F)C(F)(F)C(F)(F)F)[Si](C)(C)C [N-Methyl-N-trimethylsilylheptafluorobutyramide]; conditions: 2200 nM; in DMSO
Experimental: as §1

[13] = compound: O=C(O)C(F)(F)C(F)(F)C(F)(F)C(F)(F)C(=O)O [Octafluoroadipic acid]; conditions: 2200 nM; in DMSO
Experimental: as §1

[14] = compound: O=C(O)C(F)(F)C(F)(F)C(F)(F)C(F)(F)C(F)(F)C(F)(F)F [Perfluoroheptanoic acid]; conditions: in DMSO
Experimental: as §1

[15] = compound: O=S(=O)(O)CCC(F)(F)C(F)(F)C(F)(F)C(F)(F)C(F)(F)C(F)(F)C(F)(F)C(F)(F)F [8:2 Fluorotelomer sulfonic acid]; conditions: in DMSO
Experimental: as §1

[16] = compound: NC(=O)C(F)(F)C(F)(F)C(F)(F)F [Heptafluorobutyramide]; conditions: 2200 nM; in DMSO
Experimental: as §1

HDF3CGF:CXCL8/IL-8
level (log10) ([1]; 740 nM): 0.007 ± 0.011
level (log10) ([1]; 2200 nM): -0.0065 ± 0.0035
level (log10) [2]: 0.006 ± 0.0071
level (log10) [3]: 0.0115 ± 0.005
level (log10) [4]: 0.008 ± 0.0014
level (log10) [5]: -0.001 ± 0.017
level (log10) ([6]; 2200 nM): -0.007 ± 0.0071
level (log10) ([6]; 6700 nM): 0.003 ± 0.0057
level (log10) ([6]; 20000 nM): -0.006 ± 0.0028
level (log10) ([6]; 60000 nM): 0.002 ± 0.023
level (log10) [7]: -0.0055 ± 0.015
level (log10) [8]: -0.0075 ± 0.015
level (log10) [9]: 0 ± 0.0028
level (log10) ([10]; 2200 nM): 0.0115 ± 0.021
level (log10) ([10]; 6700 nM): 0.0345 ± 0.016
level (log10) ([10]; 20000 nM): 0.011 ± 0.0071
level (log10) [11]: 0.0035 ± 0.005
level (log10) [12]: 0.0115 ± 0.011
level (log10) [13]: 0 ± 0.0071
level (log10) ([14]; 2200 nM): -0.004 ± 0.0042
level (log10) ([14]; 6700 nM): -0.0055 ± 0.0078
level (log10) ([14]; 20000 nM): -0.0055 ± 0.0064
level (log10) ([14]; 60000 nM): 0.0095 ± 0.013
level (log10) ([15]; 2200 nM): 0.001 ± 0.0028
level (log10) ([15]; 6700 nM): -0.0145 ± 0.0064
level (log10) ([15]; 20000 nM): -0.0045 ± 0.0035
level (log10) ([15]; 60000 nM): -0.0015 ± 0.026
level (log10) [16]: -0.0085 ± 0.005

HDF3CGF:CXCL9/MIG
level (log10) ([1]; 740 nM): -0.0075 ± 0.025
level (log10) ([1]; 2200 nM): 0.0045 ± 0.023
level (log10) [2]: 0.006 ± 0.0057
level (log10) [3]: -0.0215 ± 0.023
level (log10) [4]: -0.107 ± 0.13
level (log10) [5]: 0.005 ± 0.0028
level (log10) ([6]; 2200 nM): 0.0045 ± 0.00071
level (log10) ([6]; 6700 nM): -0.004 ± 0.0057
level (log10) ([6]; 20000 nM): -0.004 ± 0.018
level (log10) ([6]; 60000 nM): -0.003 ± 0.02
level (log10) [7]: 0.0075 ± 0.021
level (log10) [8]: -0.008 ± 0.017
level (log10) [9]: -0.0145 ± 0.029
level (log10) ([10]; 2200 nM): -0.013 ± 0.0057
level (log10) ([10]; 6700 nM): -0.0065 ± 0.015
level (log10) ([10]; 20000 nM): -0.159 ± 0.023
level (log10) [11]: -0.028 ± 0.021
level (log10) [12]: -0.003 ± 0.0014
level (log10) [13]: -0.0005 ± 0.0064
level (log10) ([14]; 2200 nM): 0.0005 ± 0.019
level (log10) ([14]; 6700 nM): -0.009 ± 0.0071
level (log10) ([14]; 20000 nM): -0.002 ± 0.021
level (log10) ([14]; 60000 nM): 0.0165 ± 0.0064
level (log10) ([15]; 2200 nM): 0.0045 ± 0.016
level (log10) ([15]; 6700 nM): -0.048 ± 0.034
level (log10) ([15]; 20000 nM): -0.0575 ± 0.04
level (log10) ([15]; 60000 nM): 0.061 ± 0.034
level (log10) [16]: 0.0025 ± 0.015

HDF3CGF:CXCL10/IP-10
level (log10) ([1]; 740 nM): -0.0305 ± 0.023
level (log10) ([1]; 2200 nM): -0.0115 ± 0.033
level (log10) [2]: -0.012 ± 0.0071
level (log10) [3]: -0.0385 ± 0.00071
level (log10) [4]: -0.073 ± 0.047
level (log10) [5]: -0.006 ± 0.025
level (log10) ([6]; 2200 nM): 0.0065 ± 0.036
level (log10) ([6]; 6700 nM): 0 ± 0.014
level (log10) ([6]; 20000 nM): -0.011 ± 0.0028
level (log10) ([6]; 60000 nM): 0.006 ± 0.0057
level (log10) [7]: 0.018 ± 0.059
level (log10) [8]: -0.015 ± 0.072
level (log10) [9]: 0.0035 ± 0.033
level (log10) ([10]; 2200 nM): -0.006 ± 0.031
level (log10) ([10]; 6700 nM): -0.0725 ± 0.05
level (log10) ([10]; 20000 nM): -0.206 ± 0.0057
level (log10) [11]: 0.016 ± 0.017
level (log10) [12]: 0.0295 ± 0.0092
level (log10) [13]: -0.0085 ± 0.0064
level (log10) ([14]; 2200 nM): 0.0065 ± 0.047
level (log10) ([14]; 6700 nM): -0.0295 ± 0.046
level (log10) ([14]; 20000 nM): -0.015 ± 0.016
level (log10) ([14]; 60000 nM): -0.0295 ± 0.0092
level (log10) ([15]; 2200 nM): -0.01 ± 0.0014
level (log10) ([15]; 6700 nM): -0.014 ± 0.0014
level (log10) ([15]; 20000 nM): -0.0315 ± 0.0092
level (log10) ([15]; 60000 nM): -0.06 ± 0.016
level (log10) [16]: -0.008 ± 0.011

HDF3CGF:CXCL11/I-TAC
level (log10) ([1]; 740 nM): -0.024 ± 0.028
level (log10) ([1]; 2200 nM): -0.022 ± 0.013
level (log10) [2]: 0.003 ± 0.011
level (log10) [3]: -0.0215 ± 0.025
level (log10) [4]: -0.108 ± 0.064
level (log10) [5]: -0.03
level (log10) ([6]; 2200 nM): -0.006 ± 0.0099
level (log10) ([6]; 6700 nM): -0.0085 ± 0.012
level (log10) ([6]; 20000 nM): -0.0065 ± 0.015
level (log10) ([6]; 60000 nM): 0.005 ± 0.054
level (log10) [7]: 0.009 ± 0.0028
level (log10) [8]: -0.041 ± 0.013
level (log10) [9]: -0.0015 ± 0.037
level (log10) ([10]; 2200 nM): 0.0245 ± 0.016
level (log10) ([10]; 6700 nM): -0.0535 ± 0.046
level (log10) ([10]; 20000 nM): -0.172 ± 0.041
level (log10) [11]: -0.0075 ± 0.013
level (log10) [12]: -0.0065 ± 0.035
level (log10) [13]: -0.0075 ± 0.0021
level (log10) ([14]; 2200 nM): 0.0025 ± 0.016
level (log10) ([14]; 6700 nM): -0.0165 ± 0.013
level (log10) ([14]; 20000 nM): 0.003 ± 0.011
level (log10) ([14]; 60000 nM): 0.01 ± 0.016
level (log10) ([15]; 2200 nM): -0.0075 ± 0.0035
level (log10) ([15]; 6700 nM): -0.053 ± 0.027
level (log10) ([15]; 20000 nM): -0.0285 ± 0.03
level (log10) ([15]; 60000 nM): -0.0865 ± 0.067
level (log10) [16]: -0.0055 ± 0.012

HDF3CGF:Collagen I
level (log10) ([1]; 740 nM): -0.0135 ± 0.077
level (log10) ([1]; 2200 nM): -0.0585 ± 0.0092
level (log10) [2]: 0.031 ± 0.041
level (log10) [3]: 0.0415 ± 0.0078
level (log10) [4]: -0.0205 ± 0.066
level (log10) [5]: 0.05 ± 0.069
level (log10) ([6]; 2200 nM): -0.025 ± 0.042
level (log10) ([6]; 6700 nM): -0.0295 ± 0.012
level (log10) ([6]; 20000 nM): -0.01 ± 0.0014
level (log10) ([6]; 60000 nM): 0.003 ± 0.064
level (log10) [7]: 0.017 ± 0.075
level (log10) [8]: 0.0085 ± 0.12
level (log10) [9]: 0.0085 ± 0.03
level (log10) ([10]; 2200 nM): 0.0355 ± 0.13
level (log10) ([10]; 6700 nM): 0.0835 ± 0.03
level (log10) ([10]; 20000 nM): 0.112 ± 0.0092
level (log10) [11]: 0.0115 ± 0.03
level (log10) [12]: 0.0025 ± 0.056
level (log10) [13]: 0.035 ± 0.075
level (log10) ([14]; 2200 nM): 0.0155 ± 0.087
level (log10) ([14]; 6700 nM): -0.036 ± 0.045
level (log10) ([14]; 20000 nM): -0.009 ± 0.024
level (log10) ([14]; 60000 nM): 0.0395 ± 0.061
level (log10) ([15]; 2200 nM): 0.021 ± 0.037
level (log10) ([15]; 6700 nM): 0.007 ± 0.038
level (log10) ([15]; 20000 nM): 0.0195 ± 0.049
level (log10) ([15]; 60000 nM): -0.0455 ± 0.17
level (log10) [16]: 0.0415 ± 0.022

Source: the supplement of paper PMC10331698
